For part of these data: A negative result means that nothing was seen under these conditions. For part of these data: The exact form of at least one protein or probe is not confirmed. For part of these data: At least one verdict rests on a figure or table, not on a statement of the authors. For part of these data: Protein sequences can lack the tags named with them.
Tests used:
BSA = BSA (UniProt P02769); assay: fluorescence anisotropy; details: 10 mM Tris pH 8, 60 mM NaCl, 0.2 mM MgCl2 (5 mM DTT when reducing), 900 nM probe, 0-80 µM protein, 30 min at room temperature; commercial protein; label: 5' TAMRA on forward strand
[1] = target: T1, NifA NC-DBD (DNA binding domain without Cys pair) (Gluconacetobacter diazotrophicus) (UniProt A9H5T0); assay: competition with a labelled probe; details: competes with labeled nifH-UAS (900 nM), 50 µM protein; 10 mM Tris pH 8, 60 mM NaCl, 0.2 mM MgCl2 (5 mM DTT when reducing), 900 nM probe, 0-80 µM protein, 30 min at room temperature; recombinant protein; residues 530-581
T1 sequence (looked up): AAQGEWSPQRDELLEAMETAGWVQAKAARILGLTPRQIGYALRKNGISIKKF

Protein sequences, listed by entry. Tags and fused reporters are not part of them. Residues count along the entry.
UniProt P02769, 25-607: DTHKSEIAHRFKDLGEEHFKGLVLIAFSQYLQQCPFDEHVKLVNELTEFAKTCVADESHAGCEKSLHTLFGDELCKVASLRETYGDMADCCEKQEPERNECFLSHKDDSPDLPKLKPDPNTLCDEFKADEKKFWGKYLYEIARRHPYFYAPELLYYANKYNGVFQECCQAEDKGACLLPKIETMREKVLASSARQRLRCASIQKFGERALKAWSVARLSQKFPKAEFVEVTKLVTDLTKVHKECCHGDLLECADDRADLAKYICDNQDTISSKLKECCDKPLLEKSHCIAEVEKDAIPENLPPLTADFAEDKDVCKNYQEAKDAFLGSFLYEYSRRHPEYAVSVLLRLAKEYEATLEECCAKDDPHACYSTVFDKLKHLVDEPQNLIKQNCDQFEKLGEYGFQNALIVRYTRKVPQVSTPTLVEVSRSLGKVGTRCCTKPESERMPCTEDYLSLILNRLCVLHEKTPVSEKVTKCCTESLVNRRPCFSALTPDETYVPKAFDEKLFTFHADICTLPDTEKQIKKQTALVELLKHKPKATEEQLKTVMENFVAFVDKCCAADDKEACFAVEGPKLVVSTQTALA

[2] = target: T2, NifA 2C-DBD (DNA binding domain with upstream Cys pair) (Gluconacetobacter diazotrophicus) (UniProt A9H5T0); assay: competition with a labelled probe; details: competes with labeled nifH-UAS (900 nM), 50 µM protein; 10 mM Tris pH 8, 60 mM NaCl, 0.2 mM MgCl2 (5 mM DTT when reducing), 900 nM probe, 0-80 µM protein, 30 min at room temperature; recombinant protein; residues 520-581
T2 sequence (looked up): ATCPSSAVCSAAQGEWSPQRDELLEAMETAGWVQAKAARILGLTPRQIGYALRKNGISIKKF

Sequence | binding result (BSA) | binding result [1] | binding result [2]
CGGTTTTGTCAGGCTTCGCACAAAGCCG (double strand) [nifH-UAS duplex, TAMRA-labeled] | no binding |  | 
CGGTTTTGTCAGGCTTCGCACAAAGCCG (double strand) [nifH-UAS duplex, unlabeled competitor] |  | binds | binds
